The text below walks through data of article PMC7864078.

Results are given in words; binding and its absence hold for the method and conditions named.

This assay deals with RNase J1 C-terminal domain deletion construct (RNase J1ΔCTD, residues 1-450) (Staphylococcus epidermidis) (UniProt Q5HQ80). The experiment in a line: SEC; analytical Superdex200; 250 μg of each freshly purified enzyme injected separately; 50 mM Tris-HCl pH 8.0, 250 mM NaCl, 10% glycerol, 4 mM β-ME, 0.5 mM TCEP, 5 mM MgCl2; both purified.

Consider “RNase J1 C-terminal domain deletion construct (RNase J1ΔCTD, residues 1-450) (from UniProt Q5HQ80 1-450) (domain or fragment)”, for which the binding entry was “no binding (tested: 250 μg injected)”.
